# Measured values: the supplement of paper PMC10849652
# By UniProt entry, the sequences of proteins in these tests, tags left out. Where a name states a change or a piece, a line headed by the entry shows the natural chain unless it says otherwise.
# UniProt Q8NDZ6: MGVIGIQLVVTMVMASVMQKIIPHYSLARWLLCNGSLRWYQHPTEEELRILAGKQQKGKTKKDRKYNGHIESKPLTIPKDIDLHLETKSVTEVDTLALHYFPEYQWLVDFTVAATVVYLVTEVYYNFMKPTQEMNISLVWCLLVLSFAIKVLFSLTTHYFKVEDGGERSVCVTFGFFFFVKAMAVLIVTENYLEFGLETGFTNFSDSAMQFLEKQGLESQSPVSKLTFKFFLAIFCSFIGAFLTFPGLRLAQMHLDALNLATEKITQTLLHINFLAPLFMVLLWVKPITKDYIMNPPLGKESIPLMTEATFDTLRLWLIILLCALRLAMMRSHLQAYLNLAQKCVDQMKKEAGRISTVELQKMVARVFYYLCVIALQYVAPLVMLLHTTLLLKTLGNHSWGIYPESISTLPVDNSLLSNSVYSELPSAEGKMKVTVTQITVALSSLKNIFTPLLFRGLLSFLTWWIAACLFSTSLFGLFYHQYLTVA
# UniProt Q8N131: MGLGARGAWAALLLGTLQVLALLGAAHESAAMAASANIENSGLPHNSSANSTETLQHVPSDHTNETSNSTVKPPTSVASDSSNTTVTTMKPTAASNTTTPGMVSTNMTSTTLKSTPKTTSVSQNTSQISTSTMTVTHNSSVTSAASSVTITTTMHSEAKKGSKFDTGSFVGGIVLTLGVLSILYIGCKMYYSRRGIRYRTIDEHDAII
# UniProt Q9HCN3: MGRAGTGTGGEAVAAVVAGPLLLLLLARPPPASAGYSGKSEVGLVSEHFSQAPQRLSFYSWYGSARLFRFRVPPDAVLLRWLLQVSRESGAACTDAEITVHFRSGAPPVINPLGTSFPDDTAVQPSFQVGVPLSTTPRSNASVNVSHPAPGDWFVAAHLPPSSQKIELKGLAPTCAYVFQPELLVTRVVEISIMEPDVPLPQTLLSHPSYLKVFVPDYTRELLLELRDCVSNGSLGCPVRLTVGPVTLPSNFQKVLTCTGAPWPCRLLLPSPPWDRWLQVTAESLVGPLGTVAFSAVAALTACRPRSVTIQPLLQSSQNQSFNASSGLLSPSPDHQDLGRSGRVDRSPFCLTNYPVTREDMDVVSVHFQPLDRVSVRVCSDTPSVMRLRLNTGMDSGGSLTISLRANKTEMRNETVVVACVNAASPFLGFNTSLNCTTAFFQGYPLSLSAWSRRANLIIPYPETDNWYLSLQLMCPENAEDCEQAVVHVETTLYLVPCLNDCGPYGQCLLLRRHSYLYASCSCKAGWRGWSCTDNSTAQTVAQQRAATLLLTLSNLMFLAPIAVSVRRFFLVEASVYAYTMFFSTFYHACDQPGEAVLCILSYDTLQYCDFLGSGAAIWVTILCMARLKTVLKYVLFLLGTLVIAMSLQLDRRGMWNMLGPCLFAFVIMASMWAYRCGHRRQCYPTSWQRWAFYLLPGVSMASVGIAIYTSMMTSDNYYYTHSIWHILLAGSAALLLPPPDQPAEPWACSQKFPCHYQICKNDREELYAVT
# UniProt Q9BXJ8: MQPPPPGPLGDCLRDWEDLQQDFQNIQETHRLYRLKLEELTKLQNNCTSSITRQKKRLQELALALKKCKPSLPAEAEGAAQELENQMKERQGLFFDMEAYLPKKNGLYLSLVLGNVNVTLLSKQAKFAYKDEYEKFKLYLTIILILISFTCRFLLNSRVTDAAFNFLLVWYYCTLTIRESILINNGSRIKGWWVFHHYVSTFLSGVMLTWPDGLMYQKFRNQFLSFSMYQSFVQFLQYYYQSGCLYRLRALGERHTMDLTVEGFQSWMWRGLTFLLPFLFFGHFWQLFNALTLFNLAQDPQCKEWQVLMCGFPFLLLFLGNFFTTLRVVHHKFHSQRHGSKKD
# UniProt Q9NUM4, whole entry, looked up: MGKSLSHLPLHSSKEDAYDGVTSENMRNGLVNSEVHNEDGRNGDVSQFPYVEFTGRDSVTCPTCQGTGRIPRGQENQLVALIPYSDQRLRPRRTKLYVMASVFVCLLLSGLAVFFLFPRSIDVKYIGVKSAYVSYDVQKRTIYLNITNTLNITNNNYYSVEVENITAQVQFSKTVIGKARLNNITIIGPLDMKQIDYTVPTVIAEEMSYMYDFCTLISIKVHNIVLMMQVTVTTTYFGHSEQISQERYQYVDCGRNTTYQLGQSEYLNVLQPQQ
# UniProt Q5BJH2: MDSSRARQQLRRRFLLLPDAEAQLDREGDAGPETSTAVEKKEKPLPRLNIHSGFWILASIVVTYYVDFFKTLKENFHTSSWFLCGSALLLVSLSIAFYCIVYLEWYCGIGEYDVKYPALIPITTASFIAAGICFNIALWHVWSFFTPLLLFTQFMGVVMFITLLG
# UniProt Q9P0T7: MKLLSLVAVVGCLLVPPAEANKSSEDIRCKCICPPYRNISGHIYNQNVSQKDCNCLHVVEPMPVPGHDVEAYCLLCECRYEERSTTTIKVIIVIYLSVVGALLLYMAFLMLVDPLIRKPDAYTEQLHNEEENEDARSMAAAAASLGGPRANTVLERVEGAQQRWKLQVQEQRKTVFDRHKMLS
# UniProt Q5U3C3: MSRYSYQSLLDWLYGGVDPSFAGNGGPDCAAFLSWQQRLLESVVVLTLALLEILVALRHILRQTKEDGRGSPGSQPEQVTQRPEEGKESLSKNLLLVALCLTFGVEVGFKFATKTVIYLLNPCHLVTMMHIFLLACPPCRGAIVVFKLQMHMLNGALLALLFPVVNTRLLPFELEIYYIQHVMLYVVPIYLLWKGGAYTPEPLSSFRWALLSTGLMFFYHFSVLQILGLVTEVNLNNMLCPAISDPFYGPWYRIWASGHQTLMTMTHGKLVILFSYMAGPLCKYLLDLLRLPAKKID
# UniProt Q96B96: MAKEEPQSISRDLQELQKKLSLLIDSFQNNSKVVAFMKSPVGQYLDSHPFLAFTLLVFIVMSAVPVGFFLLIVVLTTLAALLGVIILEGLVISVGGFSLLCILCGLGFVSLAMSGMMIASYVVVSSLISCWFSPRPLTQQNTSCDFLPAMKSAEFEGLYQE
# UniProt Q96K49: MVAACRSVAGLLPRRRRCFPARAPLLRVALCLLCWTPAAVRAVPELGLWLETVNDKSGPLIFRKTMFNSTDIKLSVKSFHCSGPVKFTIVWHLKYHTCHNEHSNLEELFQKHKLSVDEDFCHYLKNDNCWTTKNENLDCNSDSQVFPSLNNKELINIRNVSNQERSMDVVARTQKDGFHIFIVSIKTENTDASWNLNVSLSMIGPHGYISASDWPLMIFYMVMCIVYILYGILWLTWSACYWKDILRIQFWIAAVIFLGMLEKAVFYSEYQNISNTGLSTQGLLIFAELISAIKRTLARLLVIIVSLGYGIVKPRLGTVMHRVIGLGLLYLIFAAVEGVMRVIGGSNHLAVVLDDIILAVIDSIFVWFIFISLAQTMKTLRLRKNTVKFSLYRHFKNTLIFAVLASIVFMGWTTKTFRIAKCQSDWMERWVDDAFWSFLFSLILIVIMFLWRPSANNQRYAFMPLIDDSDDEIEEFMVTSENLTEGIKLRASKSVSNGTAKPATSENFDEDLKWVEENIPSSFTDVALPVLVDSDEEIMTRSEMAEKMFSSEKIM
# UniProt O00220, whole entry, looked up: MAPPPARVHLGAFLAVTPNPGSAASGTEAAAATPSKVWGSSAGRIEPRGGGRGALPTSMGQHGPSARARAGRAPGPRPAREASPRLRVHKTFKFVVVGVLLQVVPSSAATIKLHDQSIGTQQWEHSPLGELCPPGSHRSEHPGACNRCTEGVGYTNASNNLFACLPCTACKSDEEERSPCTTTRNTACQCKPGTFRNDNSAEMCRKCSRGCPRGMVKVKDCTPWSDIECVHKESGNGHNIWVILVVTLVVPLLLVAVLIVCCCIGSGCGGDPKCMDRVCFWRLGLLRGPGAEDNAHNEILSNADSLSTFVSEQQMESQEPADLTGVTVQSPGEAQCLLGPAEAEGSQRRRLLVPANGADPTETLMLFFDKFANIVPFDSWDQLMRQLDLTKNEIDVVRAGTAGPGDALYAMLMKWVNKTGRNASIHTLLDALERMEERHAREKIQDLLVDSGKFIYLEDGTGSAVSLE
# UniProt Q53S58: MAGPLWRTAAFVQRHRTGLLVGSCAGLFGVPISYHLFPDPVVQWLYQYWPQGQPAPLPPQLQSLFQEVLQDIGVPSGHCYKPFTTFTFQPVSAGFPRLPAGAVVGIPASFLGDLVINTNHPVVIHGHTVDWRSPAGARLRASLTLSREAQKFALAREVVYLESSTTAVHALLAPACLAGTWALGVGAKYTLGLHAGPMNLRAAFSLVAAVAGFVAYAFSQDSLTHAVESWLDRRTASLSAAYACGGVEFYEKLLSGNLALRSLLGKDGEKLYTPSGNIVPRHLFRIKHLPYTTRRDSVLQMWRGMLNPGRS
# UniProt Q9BX74: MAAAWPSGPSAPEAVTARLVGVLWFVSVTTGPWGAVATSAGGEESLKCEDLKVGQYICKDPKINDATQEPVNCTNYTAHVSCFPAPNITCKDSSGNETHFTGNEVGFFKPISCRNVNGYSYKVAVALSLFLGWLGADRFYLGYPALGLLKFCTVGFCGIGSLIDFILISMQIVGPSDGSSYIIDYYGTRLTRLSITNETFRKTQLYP
# UniProt Q9NX61: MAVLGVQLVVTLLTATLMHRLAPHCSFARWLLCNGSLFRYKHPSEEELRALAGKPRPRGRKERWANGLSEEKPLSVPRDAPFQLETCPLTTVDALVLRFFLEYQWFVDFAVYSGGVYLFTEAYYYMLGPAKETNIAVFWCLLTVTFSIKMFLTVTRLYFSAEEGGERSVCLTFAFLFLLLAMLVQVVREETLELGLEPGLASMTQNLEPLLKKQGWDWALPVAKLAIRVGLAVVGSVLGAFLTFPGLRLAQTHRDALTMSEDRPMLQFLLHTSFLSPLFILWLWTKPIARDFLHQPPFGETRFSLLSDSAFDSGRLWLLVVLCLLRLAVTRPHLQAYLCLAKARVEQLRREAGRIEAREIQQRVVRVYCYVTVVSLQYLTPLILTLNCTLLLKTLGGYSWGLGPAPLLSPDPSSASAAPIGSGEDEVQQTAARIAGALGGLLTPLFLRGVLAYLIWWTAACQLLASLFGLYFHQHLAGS
# UniProt O76062: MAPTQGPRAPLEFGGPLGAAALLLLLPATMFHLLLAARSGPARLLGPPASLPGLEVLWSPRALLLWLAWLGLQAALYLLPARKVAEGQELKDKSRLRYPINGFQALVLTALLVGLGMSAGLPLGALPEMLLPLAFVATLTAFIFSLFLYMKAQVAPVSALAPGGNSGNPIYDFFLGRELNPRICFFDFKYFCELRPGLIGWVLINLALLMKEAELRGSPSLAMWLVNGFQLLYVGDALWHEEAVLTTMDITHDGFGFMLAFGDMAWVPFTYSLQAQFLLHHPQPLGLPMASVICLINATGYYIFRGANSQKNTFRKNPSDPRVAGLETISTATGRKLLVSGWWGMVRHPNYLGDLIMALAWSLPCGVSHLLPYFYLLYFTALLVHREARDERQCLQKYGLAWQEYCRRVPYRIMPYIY
# UniProt Q9Y519: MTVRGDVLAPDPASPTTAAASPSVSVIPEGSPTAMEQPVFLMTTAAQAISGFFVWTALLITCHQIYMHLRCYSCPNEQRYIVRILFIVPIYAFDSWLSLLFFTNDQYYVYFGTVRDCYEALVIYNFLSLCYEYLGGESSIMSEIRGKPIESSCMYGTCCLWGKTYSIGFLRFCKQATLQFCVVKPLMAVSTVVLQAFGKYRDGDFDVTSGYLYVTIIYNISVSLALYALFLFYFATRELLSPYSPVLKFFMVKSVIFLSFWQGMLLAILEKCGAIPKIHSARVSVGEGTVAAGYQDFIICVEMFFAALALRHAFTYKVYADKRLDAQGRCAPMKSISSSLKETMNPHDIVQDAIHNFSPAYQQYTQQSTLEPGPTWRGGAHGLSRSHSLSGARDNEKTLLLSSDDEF
# UniProt Q5SWH9: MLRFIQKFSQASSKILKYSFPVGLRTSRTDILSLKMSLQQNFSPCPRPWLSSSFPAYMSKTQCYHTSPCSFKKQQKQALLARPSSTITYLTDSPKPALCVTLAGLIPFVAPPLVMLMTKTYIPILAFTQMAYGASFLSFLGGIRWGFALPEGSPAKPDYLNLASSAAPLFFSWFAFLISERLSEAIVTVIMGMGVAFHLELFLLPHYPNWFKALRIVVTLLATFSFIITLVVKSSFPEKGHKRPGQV
# UniProt Q9ULS5: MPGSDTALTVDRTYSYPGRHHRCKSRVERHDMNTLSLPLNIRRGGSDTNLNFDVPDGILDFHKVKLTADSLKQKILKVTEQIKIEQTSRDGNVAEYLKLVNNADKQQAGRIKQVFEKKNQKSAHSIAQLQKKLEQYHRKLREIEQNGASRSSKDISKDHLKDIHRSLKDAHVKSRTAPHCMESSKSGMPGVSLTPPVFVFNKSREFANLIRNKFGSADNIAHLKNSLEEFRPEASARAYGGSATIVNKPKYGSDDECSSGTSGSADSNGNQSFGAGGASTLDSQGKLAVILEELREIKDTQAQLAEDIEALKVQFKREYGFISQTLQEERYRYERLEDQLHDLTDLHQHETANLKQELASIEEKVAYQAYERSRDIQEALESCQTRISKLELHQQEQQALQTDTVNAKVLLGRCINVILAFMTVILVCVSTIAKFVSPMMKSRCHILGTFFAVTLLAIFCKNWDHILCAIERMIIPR
# Some of the results follow.
# Legend:
# Test in all cases: log2 fold change, soluble protein after heating vs DMSO (PISA); higher = thermal stabilisation; K562 cells, 10 uM, 30 min; active = over 0.2 and 3.5 SD of the protein, either way, in both replicates (recomputed)
# saracatinib = compound: CN1CCN(CCOc2cc(OC3CCOCC3)c3c(Nc4c(Cl)ccc5c4OCO5)ncnc3c2)CC1 [saracatinib]
# In short: (§1)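 Quantification of soluble protein used TMTpro 16plex LC-MS/MS, with channel sums equalised. Samples were the supernatant after 21,000xg for 90 min of pooled aliquots from K562 cells (2×10^6 cells/mL) treated with 10 μM compound for 30 min, heated for 3 min over 48°C-58°C, and extracted in PBS with 0.5% NP-40 at 4°C. Values, from duplicates, describe thermal stability against control samples on a log2 fold-change scale.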
# sotrastaurin = compound: CN1CCN(c2nc(C3=C(c4c[nH]c5ccccc45)C(=O)NC3=O)c3ccccc3n2)CC1 [sotrastaurin]
# In short: as §1
# Tubastatin A = compound: CN1CCc2c(c3ccccc3n2Cc2ccc(C(=O)NO)cc2)C1 [Tubastatin A]
# In short: as §1
# [1] = compound: CNC(=O)C1=CC=CC=C1NC2=NC(=NC=C2Cl)NC3=C(C=C(C=C3)N4CCOCC4)OC
# In short: as §1
# defactinib = compound: CNC(=O)c1ccc(Nc2ncc(C(F)(F)F)c(NCc3nccnc3N(C)S(C)(=O)=O)n2)cc1 [defactinib]
# In short: as §1
# rucaparib = compound: CNCc1ccc(-c2[nH]c3cc(F)cc4c3c2CCNC4=O)cc1 [rucaparib]
# In short: as §1
# [2] = compound: CNc1nc(-c2ccc3c(N)n[nH]c3c2)cc(N2C[C@@H](C(=O)NC3CCCCC3)CC[C@H]2C)n1
# In short: as §1
# encorafenib = compound: COC(=O)N[C@@H](C)CNc1nccc(-c2cn(C(C)C)nc2-c2cc(Cl)cc(NS(C)(=O)=O)c2F)n1 [encorafenib]
# In short: as §1
# [3] = compound: COC(=O)[C@H](CCSC)NC(=O)C1=C(C=C(C=C1)NC[C@H](CS)N)C2=CC=CC=C2
# In short: as §1
# alvocidib = compound: CN1CC[C@H](c2c(O)cc(O)c3c(=O)cc(-c4ccccc4Cl)oc23)[C@H](O)C1 [alvocidib]
# In short: as §1
Target,log2 fold change (saracatinib),log2 fold change (sotrastaurin),log2 fold change (Tubastatin A),log2 fold change [1],log2 fold change (defactinib),log2 fold change (rucaparib),log2 fold change [2],log2 fold change (encorafenib),log2 fold change [3],log2 fold change (alvocidib)
TMEM161B (UniProt Q8NDZ6),inactive: 0.048,inactive: 0.037,inactive: -0.007,inactive: -0.043,inactive: -0.061,inactive: 0.013,inactive: -0.049,inactive: -0.023,inactive: -0.05,–
TMEM219 (UniProt Q86XT9),inactive: 0.261,inactive: 0.03,inactive: -0.059,inactive: -0.016,inactive: -0.185,–,inactive: 0.176,–,inactive: -0.093,–
TMEM123 (UniProt Q8N131),inactive: 0.03,inactive: 0.012,inactive: -0.033,inactive: -0.096,inactive: -0.064,inactive: -0.061,inactive: 0.054,inactive: -0.022,inactive: 0.086,–
TMEM8A (UniProt Q9HCN3),inactive: 0.059,inactive: -0.099,inactive: 0.108,inactive: -0.042,inactive: -0.039,inactive: 0.004,inactive: 0.02,inactive: 0.037,inactive: -0.191,–
TMEM120A (UniProt Q9BXJ8),inactive: 0.036,inactive: -0.098,inactive: 0.069,inactive: -0.013,inactive: -0.104,active: -0.559,inactive: -0.036,inactive: 0.184,inactive: -0.047,–
TMEM268 isoform 3 (UniProt Q5VZI3),inactive: 0.033,inactive: -0.103,inactive: 0.131,inactive: -0.017,–,inactive: -0.021,inactive: 0.046,inactive: -0.19,–,–
TMEM41A (UniProt Q96HV5),inactive: 0.03,inactive: -0.057,inactive: -0.068,inactive: 0.008,inactive: 0.003,inactive: -0.009,inactive: -0.011,inactive: 0.025,inactive: -0.012,–
TM9SF4 (UniProt Q92544),inactive: -0.028,inactive: 0.017,inactive: -0.015,inactive: 0.013,inactive: 0.037,inactive: 0.043,inactive: -0.046,inactive: 0.039,inactive: -0.03,–
TMEM106B (UniProt Q9NUM4),inactive: 0.123,inactive: 0.027,inactive: -0.121,inactive: -0.037,inactive: 0.021,inactive: -0.007,inactive: -0.145,inactive: -0.037,inactive: -0.059,–
TM7SF3 (UniProt Q9NS93),inactive: 0.072,inactive: 0.035,inactive: -0.082,inactive: 0.039,–,inactive: -0.077,inactive: -0.011,inactive: 0.089,–,–
TNFAIP2 (UniProt Q03169),inactive: -0.119,inactive: -0.098,inactive: 0.105,inactive: -0.244,–,–,inactive: 0.086,–,–,–
TMCO3 (UniProt Q6UWJ1),inactive: -0.202,inactive: 0.15,–,–,inactive: 0.032,–,inactive: -0.006,–,inactive: 0.134,–
TMEM63B (UniProt Q5T3F8),inactive: -0.084,inactive: -0.055,inactive: -0.015,inactive: 0.019,inactive: 0.015,inactive: -0.004,inactive: -0.068,inactive: 0.023,inactive: 0,–
TMEM128 (UniProt Q5BJH2),inactive: 0.083,inactive: 0.01,inactive: -0.011,inactive: -0.023,inactive: -0.045,inactive: 0.019,inactive: -0.062,inactive: -0.006,inactive: -0.006,–
TMEM214 (UniProt Q6NUQ4),inactive: -0.04,inactive: 0.068,inactive: 0.062,inactive: -0.002,inactive: -0.04,inactive: 0.121,inactive: 0.03,inactive: 0.041,inactive: -0.039,–
TMEM9 (UniProt Q9P0T7),inactive: 0.051,inactive: -0.025,inactive: 0.016,inactive: 0.004,inactive: -0.014,inactive: 0.003,inactive: 0.033,inactive: 0.033,inactive: 0.004,–

# Reformatted bar-delimited: part of the list above
Target | log2 fold change (saracatinib) | log2 fold change (sotrastaurin) | log2 fold change (Tubastatin A) | log2 fold change [1] | log2 fold change (defactinib) | log2 fold change (rucaparib) | log2 fold change [2] | log2 fold change (encorafenib) | log2 fold change [3] | log2 fold change (alvocidib)
TMEM8A (UniProt Q9HCN3) | inactive: 0.059 | inactive: -0.099 | inactive: 0.108 | inactive: -0.042 | inactive: -0.039 | inactive: 0.004 | inactive: 0.02 | inactive: 0.037 | inactive: -0.191 | –
TMEM120A (UniProt Q9BXJ8) | inactive: 0.036 | inactive: -0.098 | inactive: 0.069 | inactive: -0.013 | inactive: -0.104 | active: -0.559 | inactive: -0.036 | inactive: 0.184 | inactive: -0.047 | –

# Next entries follow.

Target,log2 fold change (saracatinib),log2 fold change (sotrastaurin),log2 fold change (Tubastatin A),log2 fold change [1],log2 fold change (defactinib),log2 fold change (rucaparib),log2 fold change [2],log2 fold change (encorafenib),log2 fold change [3],log2 fold change (alvocidib)
TMEM164 (UniProt Q5U3C3),inactive: -0.13,inactive: 0.197,inactive: 0.012,inactive: 0.033,inactive: 0.06,inactive: -0.233,inactive: 0.061,inactive: 0.211,inactive: -0.003,–
TMEM159 isoform 2 (UniProt Q96B96),inactive: 0.323,inactive: -0.037,inactive: -0.021,inactive: -0.155,–,–,inactive: -0.001,–,–,–
TMEM167B (UniProt Q9NRX6),inactive: 0.046,inactive: 0.018,inactive: 0.009,inactive: -0.028,inactive: -0.069,inactive: -0.055,inactive: -0.061,inactive: 0.021,inactive: 0.021,–
TMEM87B (UniProt Q96K49),inactive: -0.072,inactive: 0.013,inactive: -0.099,inactive: -0.019,inactive: 0.044,inactive: -0.016,inactive: -0.123,inactive: 0.03,inactive: 0.149,–
TNFRSF10A (UniProt O00220),inactive: -0.038,inactive: -0.012,inactive: 0.04,inactive: -0.052,inactive: 0.039,inactive: 0.017,inactive: 0.02,inactive: 0.031,inactive: 0.056,–
TMEM177 (UniProt Q53S58),inactive: 0.078,inactive: 0.014,inactive: 0.08,inactive: 0.005,inactive: -0.046,inactive: 0.009,inactive: -0.003,inactive: -0.02,inactive: 0.024,–
TM2D1 (UniProt Q9BX74),inactive: -0.031,inactive: -0.279,–,–,–,–,inactive: -0.064,–,–,–
TMEM161A (UniProt Q9NX61),inactive: 0.011,inactive: 0.027,inactive: 0.039,inactive: -0.108,inactive: 0.03,inactive: -0.106,inactive: -0.029,inactive: 0.106,inactive: 0.058,–
TMEM263 (UniProt Q8WUH6),inactive: 0.027,inactive: -0.046,inactive: -0.049,inactive: -0.161,inactive: 0.007,inactive: -0.031,inactive: -0.057,inactive: 0.015,inactive: -0.015,–
TMEM192 (UniProt Q8IY95),inactive: 0.092,inactive: -0.028,inactive: 0.035,inactive: 0.015,inactive: -0.016,inactive: -0.01,inactive: -0.033,inactive: -0.02,inactive: 0.036,–
TM7SF2 (UniProt O76062),inactive: 0.069,inactive: -0.142,–,inactive: -0.043,inactive: -0.006,–,inactive: 0.018,–,inactive: -0.096,–
TMEM184B (UniProt Q9Y519),–,inactive: -0.031,inactive: 0.178,inactive: 0.051,–,–,–,–,–,–
TMEM69 (UniProt Q5SWH9),–,–,inactive: 0.084,inactive: -0.09,–,inactive: 0.009,–,inactive: 0.051,–,inactive: 0.045
TMPO (UniProt G5E972),–,–,–,inactive: -0.048,–,–,–,–,–,–
TMCC3 (UniProt Q9ULS5),–,inactive: 0.073,–,–,–,inactive: -0.189,–,inactive: 0.139,–,–
